These are yes or no findings as the source states them, for the method shown. In cells and extracts the contact can be indirect. Some results given as binding are weak or reduced against the parent protein; the word gives no strength.

Protein sequences, listed by entry. Tags and fused reporters are not part of them.
UniProt O97159: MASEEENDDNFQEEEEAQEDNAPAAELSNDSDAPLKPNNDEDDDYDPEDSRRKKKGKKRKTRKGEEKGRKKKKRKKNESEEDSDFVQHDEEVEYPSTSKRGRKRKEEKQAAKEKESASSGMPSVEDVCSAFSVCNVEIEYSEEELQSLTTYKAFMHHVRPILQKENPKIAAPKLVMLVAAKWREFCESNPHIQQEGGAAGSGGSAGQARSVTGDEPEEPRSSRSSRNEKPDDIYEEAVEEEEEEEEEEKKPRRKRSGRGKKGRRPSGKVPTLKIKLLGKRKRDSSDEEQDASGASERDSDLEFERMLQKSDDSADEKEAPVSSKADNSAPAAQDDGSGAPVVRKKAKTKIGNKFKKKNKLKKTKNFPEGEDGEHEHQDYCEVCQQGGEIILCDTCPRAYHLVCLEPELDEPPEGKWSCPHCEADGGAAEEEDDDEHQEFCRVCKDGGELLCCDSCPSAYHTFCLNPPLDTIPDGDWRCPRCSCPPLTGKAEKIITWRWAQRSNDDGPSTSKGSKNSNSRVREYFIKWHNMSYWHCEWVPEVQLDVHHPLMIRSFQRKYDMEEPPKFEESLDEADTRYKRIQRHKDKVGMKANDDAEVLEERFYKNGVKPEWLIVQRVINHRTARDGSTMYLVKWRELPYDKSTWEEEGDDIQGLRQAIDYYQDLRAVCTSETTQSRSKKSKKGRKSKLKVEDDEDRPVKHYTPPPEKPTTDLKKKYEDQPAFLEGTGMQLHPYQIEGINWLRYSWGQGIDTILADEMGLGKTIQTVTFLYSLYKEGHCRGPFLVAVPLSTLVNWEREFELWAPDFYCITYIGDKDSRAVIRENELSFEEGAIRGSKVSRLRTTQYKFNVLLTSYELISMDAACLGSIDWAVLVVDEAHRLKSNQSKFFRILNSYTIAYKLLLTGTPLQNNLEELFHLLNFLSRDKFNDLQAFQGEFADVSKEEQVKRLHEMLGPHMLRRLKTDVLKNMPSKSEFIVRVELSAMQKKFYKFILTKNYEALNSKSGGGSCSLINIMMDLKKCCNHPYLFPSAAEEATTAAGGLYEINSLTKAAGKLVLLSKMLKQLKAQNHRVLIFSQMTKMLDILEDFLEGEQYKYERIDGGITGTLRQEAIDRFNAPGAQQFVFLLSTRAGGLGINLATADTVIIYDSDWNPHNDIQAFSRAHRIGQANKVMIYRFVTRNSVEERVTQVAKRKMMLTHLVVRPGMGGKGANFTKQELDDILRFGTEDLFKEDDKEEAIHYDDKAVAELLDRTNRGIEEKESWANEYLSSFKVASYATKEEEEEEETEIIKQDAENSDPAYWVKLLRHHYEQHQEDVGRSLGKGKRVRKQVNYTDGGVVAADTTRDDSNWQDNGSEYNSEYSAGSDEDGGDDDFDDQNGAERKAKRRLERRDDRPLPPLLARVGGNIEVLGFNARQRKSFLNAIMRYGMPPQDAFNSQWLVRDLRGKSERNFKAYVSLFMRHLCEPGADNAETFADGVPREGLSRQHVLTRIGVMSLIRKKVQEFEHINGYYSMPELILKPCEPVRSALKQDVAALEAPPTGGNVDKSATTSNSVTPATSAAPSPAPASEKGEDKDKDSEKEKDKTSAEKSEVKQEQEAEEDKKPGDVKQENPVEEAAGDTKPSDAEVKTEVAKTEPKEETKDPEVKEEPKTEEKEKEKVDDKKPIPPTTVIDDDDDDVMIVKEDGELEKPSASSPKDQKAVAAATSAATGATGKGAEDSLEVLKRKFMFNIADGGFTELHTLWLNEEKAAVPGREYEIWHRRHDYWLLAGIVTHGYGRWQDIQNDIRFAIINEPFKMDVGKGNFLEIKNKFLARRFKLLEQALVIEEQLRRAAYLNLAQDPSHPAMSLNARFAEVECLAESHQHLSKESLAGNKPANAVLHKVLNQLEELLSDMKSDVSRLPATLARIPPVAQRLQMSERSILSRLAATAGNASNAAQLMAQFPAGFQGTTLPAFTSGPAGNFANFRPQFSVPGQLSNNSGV
UniProt Q9V460: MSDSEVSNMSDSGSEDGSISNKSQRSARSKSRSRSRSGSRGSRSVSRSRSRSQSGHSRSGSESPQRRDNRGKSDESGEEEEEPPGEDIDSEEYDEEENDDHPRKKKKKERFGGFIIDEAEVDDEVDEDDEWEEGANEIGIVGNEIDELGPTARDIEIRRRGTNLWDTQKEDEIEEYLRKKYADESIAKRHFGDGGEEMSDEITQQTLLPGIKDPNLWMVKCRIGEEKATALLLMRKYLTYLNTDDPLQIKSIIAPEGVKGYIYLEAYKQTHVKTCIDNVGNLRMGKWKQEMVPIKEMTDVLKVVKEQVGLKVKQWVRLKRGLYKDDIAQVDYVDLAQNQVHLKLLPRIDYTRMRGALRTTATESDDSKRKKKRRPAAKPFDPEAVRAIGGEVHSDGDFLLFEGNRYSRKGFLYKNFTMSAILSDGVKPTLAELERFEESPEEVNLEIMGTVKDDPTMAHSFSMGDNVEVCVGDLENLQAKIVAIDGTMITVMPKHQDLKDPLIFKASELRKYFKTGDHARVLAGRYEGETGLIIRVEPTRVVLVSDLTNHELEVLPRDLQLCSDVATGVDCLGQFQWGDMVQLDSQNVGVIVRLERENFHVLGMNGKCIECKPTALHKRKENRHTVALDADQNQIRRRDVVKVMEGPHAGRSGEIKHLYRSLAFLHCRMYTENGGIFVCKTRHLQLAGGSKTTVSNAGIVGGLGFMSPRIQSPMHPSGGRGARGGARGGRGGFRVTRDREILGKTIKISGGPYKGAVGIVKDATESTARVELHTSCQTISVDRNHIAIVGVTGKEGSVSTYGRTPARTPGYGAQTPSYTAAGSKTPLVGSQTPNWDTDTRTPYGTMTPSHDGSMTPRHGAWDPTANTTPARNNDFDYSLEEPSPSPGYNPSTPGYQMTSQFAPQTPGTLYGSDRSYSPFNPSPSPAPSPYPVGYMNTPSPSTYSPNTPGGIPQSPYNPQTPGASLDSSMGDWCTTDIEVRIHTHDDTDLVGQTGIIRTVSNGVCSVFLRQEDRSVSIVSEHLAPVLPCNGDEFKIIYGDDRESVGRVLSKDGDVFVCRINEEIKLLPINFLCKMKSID
UniProt A0A0B4JDA0: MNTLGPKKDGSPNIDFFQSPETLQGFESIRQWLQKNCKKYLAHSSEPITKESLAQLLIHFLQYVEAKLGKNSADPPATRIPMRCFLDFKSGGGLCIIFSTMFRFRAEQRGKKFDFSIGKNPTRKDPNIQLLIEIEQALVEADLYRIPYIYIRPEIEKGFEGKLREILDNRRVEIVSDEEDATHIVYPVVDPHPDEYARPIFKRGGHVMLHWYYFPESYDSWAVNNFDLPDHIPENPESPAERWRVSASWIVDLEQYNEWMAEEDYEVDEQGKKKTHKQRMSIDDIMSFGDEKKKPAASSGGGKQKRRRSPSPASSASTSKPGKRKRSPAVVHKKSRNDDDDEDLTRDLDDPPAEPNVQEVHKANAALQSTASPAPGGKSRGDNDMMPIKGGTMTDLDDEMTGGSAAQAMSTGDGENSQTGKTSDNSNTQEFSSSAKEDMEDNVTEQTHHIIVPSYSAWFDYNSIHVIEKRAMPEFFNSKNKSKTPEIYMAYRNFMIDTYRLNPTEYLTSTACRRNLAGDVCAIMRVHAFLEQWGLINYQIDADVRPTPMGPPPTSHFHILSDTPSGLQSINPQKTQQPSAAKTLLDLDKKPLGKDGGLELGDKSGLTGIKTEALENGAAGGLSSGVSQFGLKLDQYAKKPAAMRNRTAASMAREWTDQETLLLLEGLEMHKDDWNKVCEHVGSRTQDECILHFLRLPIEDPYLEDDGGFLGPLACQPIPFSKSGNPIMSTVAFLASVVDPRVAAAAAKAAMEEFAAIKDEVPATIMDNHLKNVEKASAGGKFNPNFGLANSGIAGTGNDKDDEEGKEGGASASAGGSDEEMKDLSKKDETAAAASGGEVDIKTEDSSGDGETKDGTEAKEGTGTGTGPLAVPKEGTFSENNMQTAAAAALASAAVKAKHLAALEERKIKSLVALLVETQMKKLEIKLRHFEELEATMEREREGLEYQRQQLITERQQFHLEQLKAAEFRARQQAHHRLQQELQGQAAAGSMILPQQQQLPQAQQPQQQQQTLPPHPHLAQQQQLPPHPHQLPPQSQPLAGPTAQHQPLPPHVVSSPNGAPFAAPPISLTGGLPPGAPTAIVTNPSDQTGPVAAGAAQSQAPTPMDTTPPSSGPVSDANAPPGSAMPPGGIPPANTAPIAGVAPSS

The target of test [1] is T1, EcR (Drosophila melanogaster (endogenous in prepupae and S2 cells)) (UniProt P34021).
T1 sequence: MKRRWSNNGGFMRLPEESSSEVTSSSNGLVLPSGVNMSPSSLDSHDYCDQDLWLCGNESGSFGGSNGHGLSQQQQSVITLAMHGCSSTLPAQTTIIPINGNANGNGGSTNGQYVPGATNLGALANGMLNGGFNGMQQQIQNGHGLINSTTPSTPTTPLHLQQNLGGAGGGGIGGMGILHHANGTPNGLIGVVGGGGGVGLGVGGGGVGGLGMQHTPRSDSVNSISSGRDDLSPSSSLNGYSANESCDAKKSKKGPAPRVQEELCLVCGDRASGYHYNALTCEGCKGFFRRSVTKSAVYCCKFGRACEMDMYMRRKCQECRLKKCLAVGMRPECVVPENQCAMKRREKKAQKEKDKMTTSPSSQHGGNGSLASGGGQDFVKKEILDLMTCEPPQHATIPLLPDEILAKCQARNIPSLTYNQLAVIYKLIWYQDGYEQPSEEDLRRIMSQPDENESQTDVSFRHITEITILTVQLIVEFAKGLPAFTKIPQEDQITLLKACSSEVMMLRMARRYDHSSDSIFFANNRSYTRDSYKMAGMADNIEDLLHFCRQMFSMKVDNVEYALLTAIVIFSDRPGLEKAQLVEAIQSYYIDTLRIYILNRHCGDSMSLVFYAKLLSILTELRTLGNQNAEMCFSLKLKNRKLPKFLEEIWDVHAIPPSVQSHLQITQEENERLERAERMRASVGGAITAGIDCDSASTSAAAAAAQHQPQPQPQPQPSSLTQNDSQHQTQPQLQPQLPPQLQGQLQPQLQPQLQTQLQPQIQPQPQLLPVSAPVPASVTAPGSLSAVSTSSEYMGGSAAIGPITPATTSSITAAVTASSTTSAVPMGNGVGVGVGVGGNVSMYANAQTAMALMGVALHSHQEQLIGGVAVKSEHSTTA
Briefly: co-IP; nuclear protein extract of Drosophila prepupa (0-12 h after puparium formation); IP with antibodies against the partners or against EcR, serum of non-immunized rabbits as control; western blot. (Immunoblotting shows a protein as a band on a membrane.)

In test [2] the target is T2, Chromator (Drosophila melanogaster (endogenous in S2 cells and prepupae)) (UniProt Q8T9D1).
T2 sequence: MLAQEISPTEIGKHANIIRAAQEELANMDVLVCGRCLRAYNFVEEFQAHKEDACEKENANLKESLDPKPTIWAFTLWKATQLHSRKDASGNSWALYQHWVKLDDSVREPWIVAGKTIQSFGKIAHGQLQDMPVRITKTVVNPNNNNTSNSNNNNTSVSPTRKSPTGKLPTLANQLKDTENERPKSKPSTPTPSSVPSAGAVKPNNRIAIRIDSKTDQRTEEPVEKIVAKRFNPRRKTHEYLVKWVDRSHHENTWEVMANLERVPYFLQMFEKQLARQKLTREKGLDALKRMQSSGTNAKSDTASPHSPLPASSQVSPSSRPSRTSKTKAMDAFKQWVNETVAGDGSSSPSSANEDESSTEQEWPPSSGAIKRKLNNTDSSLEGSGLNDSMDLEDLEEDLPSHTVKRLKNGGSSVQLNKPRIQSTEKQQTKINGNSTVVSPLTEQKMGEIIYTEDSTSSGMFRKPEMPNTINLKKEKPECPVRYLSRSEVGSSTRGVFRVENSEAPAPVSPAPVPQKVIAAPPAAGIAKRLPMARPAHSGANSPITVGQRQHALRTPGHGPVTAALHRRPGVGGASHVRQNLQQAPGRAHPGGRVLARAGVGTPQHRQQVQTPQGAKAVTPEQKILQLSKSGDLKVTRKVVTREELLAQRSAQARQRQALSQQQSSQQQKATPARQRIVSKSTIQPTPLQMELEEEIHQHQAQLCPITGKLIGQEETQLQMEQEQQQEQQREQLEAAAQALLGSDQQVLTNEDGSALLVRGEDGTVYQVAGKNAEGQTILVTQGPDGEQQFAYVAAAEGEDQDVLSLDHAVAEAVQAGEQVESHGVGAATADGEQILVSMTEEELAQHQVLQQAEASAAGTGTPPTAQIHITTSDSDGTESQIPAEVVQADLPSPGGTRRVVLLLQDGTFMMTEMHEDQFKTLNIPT
The test is described as above.

Test [3] addresses Mi-2 (Drosophila melanogaster (endogenous in S2 cells and prepupae)) (UniProt O97159). Described as above.
For test [4], the target named is Mor (Drosophila melanogaster (endogenous in S2 cells and prepupae)). Described as above.
The target in test [5] is Spt5 (Drosophila melanogaster (endogenous in S2 cells and prepupae)) (UniProt Q9V460). Described as above.
For test [6], the target named is T3, CP190 (Drosophila melanogaster (endogenous in S2 cells and prepupae)) (UniProt Q24478).
T3 sequence: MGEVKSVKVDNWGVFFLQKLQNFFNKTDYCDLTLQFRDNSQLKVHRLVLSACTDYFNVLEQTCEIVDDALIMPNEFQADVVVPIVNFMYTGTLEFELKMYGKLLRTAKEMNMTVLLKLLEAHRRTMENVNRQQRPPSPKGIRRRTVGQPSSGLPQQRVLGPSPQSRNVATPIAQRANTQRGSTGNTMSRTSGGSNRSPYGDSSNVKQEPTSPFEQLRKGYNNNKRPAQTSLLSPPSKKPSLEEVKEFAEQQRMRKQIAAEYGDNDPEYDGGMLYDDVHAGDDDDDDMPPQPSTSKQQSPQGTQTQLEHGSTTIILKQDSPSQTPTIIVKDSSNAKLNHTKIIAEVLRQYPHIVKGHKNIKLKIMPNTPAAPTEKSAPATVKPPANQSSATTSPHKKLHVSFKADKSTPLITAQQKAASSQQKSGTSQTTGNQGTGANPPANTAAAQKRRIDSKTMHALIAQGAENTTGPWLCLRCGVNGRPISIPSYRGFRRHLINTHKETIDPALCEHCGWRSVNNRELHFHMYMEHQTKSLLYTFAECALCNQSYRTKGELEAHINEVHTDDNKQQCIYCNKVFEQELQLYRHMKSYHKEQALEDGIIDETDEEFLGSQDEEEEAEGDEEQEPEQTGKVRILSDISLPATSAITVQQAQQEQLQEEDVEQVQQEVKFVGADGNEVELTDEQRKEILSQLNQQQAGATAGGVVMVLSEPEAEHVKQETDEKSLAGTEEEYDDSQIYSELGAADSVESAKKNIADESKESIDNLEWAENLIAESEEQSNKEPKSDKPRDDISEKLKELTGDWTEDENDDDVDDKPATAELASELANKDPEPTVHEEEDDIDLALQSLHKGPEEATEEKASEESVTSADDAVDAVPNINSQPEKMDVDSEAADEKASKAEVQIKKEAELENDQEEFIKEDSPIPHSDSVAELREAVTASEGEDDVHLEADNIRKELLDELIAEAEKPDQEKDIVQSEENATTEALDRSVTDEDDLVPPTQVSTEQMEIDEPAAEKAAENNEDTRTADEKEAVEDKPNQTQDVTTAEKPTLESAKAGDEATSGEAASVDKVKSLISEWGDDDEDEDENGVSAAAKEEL
The description is as above.

Test [7] addresses T3, CP190 (Drosophila melanogaster (endogenous in S2 cells and prepupae)). Briefly: co-IP; nuclear protein extracts of Drosophila S2 cells treated with 20E or DMSO for 1 h; IP with anti-CP190 or anti-EcR antibodies; western blot.

With Spt5 (from UniProt Q9V460 1-1078), the binding entry in test [1] was “binds”.

Mi-2 (from UniProt O97159 1-1982): the binding entry in test [1] is reported as “binds”.

Mor (from UniProt A0A0B4JDA0 1-1145): the binding entry in test [1] was “binds”.

B1: EcR (receptor, UniProt P34021 1-878)
chain: T1 sequence
As for B1, the binding result in test [2], in test [3], in test [4], in test [5], in test [6] and in test [7] was “binds” in each case.

B2: Chromator (protein, UniProt Q8T9D1 1-926)
chain: T2 sequence
In the case of B2, the binding entry in test [1] was “binds”.
